Measured values taken from publication PMC7819943, “Rice protein-binding microarrays: a tool to detect cis-acting elements near promoter regions in rice”.
This is one part of the list.

Target: T1, OsSMF1 (Oryza sativa, UniProt Q6ZLB0 1-436)
T1 sequence: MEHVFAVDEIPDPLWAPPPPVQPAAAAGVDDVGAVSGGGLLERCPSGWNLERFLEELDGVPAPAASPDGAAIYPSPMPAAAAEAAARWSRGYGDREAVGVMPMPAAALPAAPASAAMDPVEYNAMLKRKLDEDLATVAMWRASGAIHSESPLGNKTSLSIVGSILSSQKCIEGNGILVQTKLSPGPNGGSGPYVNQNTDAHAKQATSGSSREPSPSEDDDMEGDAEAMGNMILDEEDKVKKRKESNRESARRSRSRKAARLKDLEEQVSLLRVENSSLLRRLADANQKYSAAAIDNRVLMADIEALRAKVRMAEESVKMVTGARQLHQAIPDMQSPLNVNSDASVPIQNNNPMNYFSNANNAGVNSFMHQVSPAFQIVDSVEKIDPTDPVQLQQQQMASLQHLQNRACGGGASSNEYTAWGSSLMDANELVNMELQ
Test: protein-binding microarray (RPBM); PBS, 2% BSA, 51.3 ng/ul salmon testes DNA, 50 uM zinc acetate, 200 nM TF, 25 C, 1 h; high values mean tight binding
Conditions: protein: recombinant; tags: N-terminal polyhistidine and DsRed monomer fusion (pET32a); chain copies: 2; label: CyDye5-dUTP incorporated in the synthesized complementary strand; 3' TTTTT single-stranded linker to array surface; dsDNA, one strand shown
Method in brief: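 Binding signal here means per-feature fluorescence intensity in arbitrary units. The values were read on an Axon 4000B scanner after a custom Agilent array, double-stranded by primer extension with Cy5-dUTP, was incubated with 200 nM protein at 25 °C for 1 h in PBS with 2% BSA, salmon testes DNA and 50 µM zinc acetate, then washed. The proteins were transcription factors with an N-terminal polyhistidine tag and DsRed, expressed in E. coli BL21-CodonPlus and purified on Ni–NTA.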

Q: With “CAACCGCCGTCCTCCCGCCGCCTCCATTTCTTTAGCGGTTCGGAGTCACCTAGTGCAG” as the sequence, how does the binding signal read?
A: 34400 fluorescence intensity (a.u.)

Q: For “AGATCTGAAGGGCTCATGTTTTCCGAGCTGCCACGTCATCCGGAGTCACCTAGTGCAG”, which binding signal is on record?
A: 31000 fluorescence intensity (a.u.)

Q: Which binding signal does the source give for “AAGAAAACTACGCTATACATATATAAAATTTACAATGTAACGGAGTCACCTAGTGCAG” here?
A: 32300 fluorescence intensity (a.u.)

Q: With “CCCTCCATGTCAGTCGCCTCATCCACTCCCACGTGGGCCCCGGAGTCACCTAGTGCAG” as the sequence, how does the binding signal read?
A: 6920 fluorescence intensity (a.u.)

Q: Which binding signal does the source give for “GAGGAGGGATCCGAGGTGTCACGGCACCGTCCCGTGAGACCGGAGTCACCTAGTGCAG” here?
A: 3610 fluorescence intensity (a.u.)

Q: With “ATAAATTTTAAATGCTACAAACCATTGTATCTTGGAACTGCGGAGTCACCTAGTGCAG” as the sequence, how does the binding signal read?
A: 3510 fluorescence intensity (a.u.)

Q: Which binding signal does the source give for “TGACATGTTCCATGGGATGGGCCGCCGACTCACCCAACCGCGGAGTCACCTAGTGCAG” here?
A: 3880 fluorescence intensity (a.u.)

Q: “CAGGACTCGGCACGACGTAACGTACACAACAATAGTCTCTCGGAGTCACCTAGTGCAG” was tested. Which binding signal did it give?
A: 4080 fluorescence intensity (a.u.)

Q: For “GATGATGGTGGTGTCCTTGCCGCGTCCTCTCTTCCATACCCGGAGTCACCTAGTGCAG”, which binding signal is on record?
A: 4580 fluorescence intensity (a.u.)

Q: “CACACCAAAAGATCATGTGTGTGTCACCACCTGCAAATCTCGGAGTCACCTAGTGCAG” was tested. Which binding signal did it give?
A: 5830 fluorescence intensity (a.u.)

Q: For “CTAGCCGGGACGTGGAGTGCGGCGCATGCAAACATCTGGTCGGAGTCACCTAGTGCAG”, which binding signal is on record?
A: 3340 fluorescence intensity (a.u.)

Q: Which binding signal does the source give for “AGCGACTCGTGTAGTTGCCACGTCAGCTTAAACTGGATGCCGGAGTCACCTAGTGCAG” here?
A: 32900 fluorescence intensity (a.u.)

Q: With “AATTATATTTCTTACTTTGTCATCAGTGACGGGTCGTAAGCGGAGTCACCTAGTGCAG” as the sequence, how does the binding signal read?
A: 4790 fluorescence intensity (a.u.)

Q: How did the binding signal turn out when “CGCCTAGCCGGTCTCCGACCCCTCCTCCAAACGCTGTCGCCGGAGTCACCTAGTGCAG” was run?
A: 3460 fluorescence intensity (a.u.)

Q: Which binding signal does the source give for “TAGCATGGAAAATAGTCATTCAATTTCACACATTGTACCACGGAGTCACCTAGTGCAG” here?
A: 3160 fluorescence intensity (a.u.)

Q: Which binding signal does the source give for “AAAACGGGGATCTACTGACAGGTCACACAGCTCGCAGCAACGGAGTCACCTAGTGCAG” here?
A: 5730 fluorescence intensity (a.u.)

Q: For “ACAATTGGATGAACACATCTTGTGTTCAAACAAATATATTCGGAGTCACCTAGTGCAG”, which binding signal is on record?
A: 31800 fluorescence intensity (a.u.)

Q: How did the binding signal turn out when “ACCCGCTGATTGATTGATTGGTTTGTCTTGGTCGTTGGCTCGGAGTCACCTAGTGCAG” was run?
A: 20500 fluorescence intensity (a.u.)

Q: “TTATCACGGACGAGGTTAACACGAAAACCACGTGGTTATCCGGAGTCACCTAGTGCAG” was tested. Which binding signal did it give?
A: 3180 fluorescence intensity (a.u.)

Q: How did the binding signal turn out when “CATGCGTATGTATGTATACCAGTATGTGGATCAACTGGCGCGGAGTCACCTAGTGCAG” was run?
A: 3200 fluorescence intensity (a.u.)

Q: “GGCGCCGTGCCGTAATCCATCTCCTCCGTCGTCCAACCTCCGGAGTCACCTAGTGCAG” was tested. Which binding signal did it give?
A: 44900 fluorescence intensity (a.u.)

Q: “GTGTTCGGACAATAGATGACGTGACCTGTGTCACGGTGTTCGGAGTCACCTAGTGCAG” was tested. Which binding signal did it give?
A: 6840 fluorescence intensity (a.u.)

Q: How did the binding signal turn out when “TTGCCCACGCATGATCCCAAGGAACCTACCCTAGTCCAAGCGGAGTCACCTAGTGCAG” was run?
A: 3230 fluorescence intensity (a.u.)

Q: With “ATGCGGTTGTGTCTGACACGGACAAACTCAACGTGACATACGGAGTCACCTAGTGCAG” as the sequence, how does the binding signal read?
A: 5050 fluorescence intensity (a.u.)

Q: With “GATGTGGCAAATAACTATTTGCCACTGGACCCAAATGTCACGGAGTCACCTAGTGCAG” as the sequence, how does the binding signal read?
A: 32700 fluorescence intensity (a.u.)

Q: How did the binding signal turn out when “CATTCACGGCATCGCCACCTTGCCCACGTACCAGGGCCCCCGGAGTCACCTAGTGCAG” was run?
A: 4060 fluorescence intensity (a.u.)

Q: With “GCCAAGTCATCGTCCACGTGGCATAACACATAGGCAAGATCGGAGTCACCTAGTGCAG” as the sequence, how does the binding signal read?
A: 9300 fluorescence intensity (a.u.)

Q: With “AGGTGGCGGTCTAGCTTGACACTCCTTTGCCTTCCATAGTCGGAGTCACCTAGTGCAG” as the sequence, how does the binding signal read?
A: 3190 fluorescence intensity (a.u.)

Q: How did the binding signal turn out when “ATGATTTATTATGTTCTGCCCTTCTTTGTTGTGACAAAGTCGGAGTCACCTAGTGCAG” was run?
A: 3900 fluorescence intensity (a.u.)

Q: With “CGCCCATGATGAACGTCACCTACGCCTTCGTCAACGGCATCGGAGTCACCTAGTGCAG” as the sequence, how does the binding signal read?
A: 3650 fluorescence intensity (a.u.)

Q: For “ATTGAACAAGCTTTGAGCCTGATGTTCAAGGTGAGTTGAGCGGAGTCACCTAGTGCAG”, which binding signal is on record?
A: 9190 fluorescence intensity (a.u.)

Q: “CAGGTTTGACCGACCTTTCAACCGATCGACGCTACCGCACCGGAGTCACCTAGTGCAG” was tested. Which binding signal did it give?
A: 20600 fluorescence intensity (a.u.)

Q: With “GCGTCTCTCAGCCACTCACCACGGCGACGTGTCATCCCATCGGAGTCACCTAGTGCAG” as the sequence, how does the binding signal read?
A: 8330 fluorescence intensity (a.u.)

Q: For “CACAATTGACGTGGCACCTTCTTCCTGCCGATGCTCTTTCCGGAGTCACCTAGTGCAG”, which binding signal is on record?
A: 20100 fluorescence intensity (a.u.)

Q: For “CCCACACCAACGGTCGCGATGTGTCTCTGGTGACGTGGCACGGAGTCACCTAGTGCAG”, which binding signal is on record?
A: 23100 fluorescence intensity (a.u.)

Q: For “TTTCCTAATAGTAGTACTTGACAGCCTATCACTCCACCAACGGAGTCACCTAGTGCAG”, which binding signal is on record?
A: 3610 fluorescence intensity (a.u.)

Q: For “TTTAGAGAAGAGAAGTGATCCACGTGTCACCATCGCGAGGCGGAGTCACCTAGTGCAG”, which binding signal is on record?
A: 22800 fluorescence intensity (a.u.)

Q: “AACTTGTAGCCGAAGGCCACGCAAGAGGCGTTGGCCCGGCCGGAGTCACCTAGTGCAG” was tested. Which binding signal did it give?
A: 3640 fluorescence intensity (a.u.)

Q: Which binding signal does the source give for “CCGCTAGTGTCCGAAACGGAAGGGCCTGTCAGAATTGTAGCGGAGTCACCTAGTGCAG” here?
A: 28600 fluorescence intensity (a.u.)

Q: For “GGCTCTAAACCAATTCCGAAGCTGAGGTGGATTCACGGGCCGGAGTCACCTAGTGCAG”, which binding signal is on record?
A: 7570 fluorescence intensity (a.u.)

Q: Which binding signal does the source give for “TCCATCTCCCACCCTTCCACCACTACCCACATCGTCTCGCCGGAGTCACCTAGTGCAG” here?
A: 3240 fluorescence intensity (a.u.)

Q: How did the binding signal turn out when “GCTGCGAACTCGCCGCACGACGTGGGACTGGGTCCAGTCCCGGAGTCACCTAGTGCAG” was run?
A: 4070 fluorescence intensity (a.u.)

Q: How did the binding signal turn out when “ACAATATTATAGAAACGTATGATCAGCATGCTTCATAATGCGGAGTCACCTAGTGCAG” was run?
A: 3180 fluorescence intensity (a.u.)

Q: “CTCCTTTGCATATCTCACTTCAGGAGGTGCTTACATCCAGCGGAGTCACCTAGTGCAG” was tested. Which binding signal did it give?
A: 3300 fluorescence intensity (a.u.)

Q: “ATATGTACGGCCCAGATGGCTATGCACGTACTCCTATATGCGGAGTCACCTAGTGCAG” was tested. Which binding signal did it give?
A: 3700 fluorescence intensity (a.u.)

Q: How did the binding signal turn out when “ATATTTATAATAAGTTTACGATATTACAATAACATTTGTCCGGAGTCACCTAGTGCAG” was run?
A: 30300 fluorescence intensity (a.u.)

Q: Which binding signal does the source give for “TGAACCAAACAACTTTGTGCTGAATCATCTATATCACCTGCGGAGTCACCTAGTGCAG” here?
A: 6240 fluorescence intensity (a.u.)

Q: With “CAGTGGCTGACACGCGGGGTCGTGGGCCACGTCAATTCGACGGAGTCACCTAGTGCAG” as the sequence, how does the binding signal read?
A: 6700 fluorescence intensity (a.u.)

Q: For “CCATTCATGCCCGTGATATCCTGGCTCCACGAGCTCTGCTCGGAGTCACCTAGTGCAG”, which binding signal is on record?
A: 59000 fluorescence intensity (a.u.)

Q: With “TTTGGAATGGCTGCACCTACGAGGGAAGTTACATGGAGCACGGAGTCACCTAGTGCAG” as the sequence, how does the binding signal read?
A: 29500 fluorescence intensity (a.u.)

Q: For “CCACGGAAACGGAAGCAGAGGCCAAGAGACGTGACCGCGTCGGAGTCACCTAGTGCAG”, which binding signal is on record?
A: 3280 fluorescence intensity (a.u.)

Q: “GACCCCACCTGTCATTCGAAGGGGTAACCACACACCTACGCGGAGTCACCTAGTGCAG” was tested. Which binding signal did it give?
A: 3940 fluorescence intensity (a.u.)

Q: For “CTGGGTCCCGAAAATTCTGCACCGGCCTCTCTTAGGGTTTCGGAGTCACCTAGTGCAG”, which binding signal is on record?
A: 10400 fluorescence intensity (a.u.)

Q: Which binding signal does the source give for “TAGCTCCCGAAGGTTCCAGAATCTTCGCAACTGCCTCCTTCGGAGTCACCTAGTGCAG” here?
A: 19800 fluorescence intensity (a.u.)
